# Library compounds against nucleic acid targets

Targets, with sequences 5′ to 3′:
PreQ1: PreQ1 riboswitch RNA pseudoknot, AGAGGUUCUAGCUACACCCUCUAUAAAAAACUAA. From B. subtilis. Hit rate about 0.7% of about 24,000 compounds.
TPP: TPP riboswitch RNA three-way junction, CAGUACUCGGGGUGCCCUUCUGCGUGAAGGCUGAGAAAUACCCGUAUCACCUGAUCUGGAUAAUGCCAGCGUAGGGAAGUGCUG. Hit rate about 0.7% of about 24,000 compounds.

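Compounds were printed on reactive glass slides in duplicate spots, a dye-labelled oligonucleotide was laid over them, and the fluorescence left after washing was read. For the PreQ1, TPP and SAM-II riboswitches the laboratory earlier reported (doi:10.1038/s41467-019-09493-3) 1 µM RNA, 2 h, and a rule that included a mean Z-score above 3 (spot signal-to-noise against the whole library), a score well above that on a control array, and duplicate spots agreeing (coefficient of variation under 100). The data file gives only the calls; its cut-offs may differ, and compounds hitting several targets are kept. A missing hit is not proof of no binding, and a hit is not a measured affinity.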
“hit” means called a hit, “no hit” means screened and not called a hit.
The compounds are a random part of those screened.

For CCN(CCO)CCCC(C)Nc1ccnc2cc(Cl)ccc12 (centres unmarked) the calls were PreQ1: no hit; TPP: no hit. COc1ccc(Cl)cc1Nc1nc2ccccc2n2cnnc12 was scored PreQ1: no hit; TPP: no hit. Cc1c(S(=O)(=O)c2ccc(Cl)cc2)c(N)n(C(C)C)c1C was scored PreQ1: no hit; TPP: no hit. With CCN(CCCCO)C(=O)c1cccc(-c2cn[nH]c2)c1 the screen gave PreQ1: no hit; TPP: no hit. For Cc1n[nH]c(C)c1S(=O)(=O)N1CCNCC1 the calls were PreQ1: no hit; TPP: no hit. Calls for CCOC(=O)C(Cc1ccc(O)cc1)Nc1nc2ccccc2o1 (centres unmarked) are PreQ1: no hit; TPP: no hit. With Cc1ccc(-c2cccc(C(=O)NCCN3CCCCC3CO)c2)o1 (centres unmarked) the screen gave PreQ1: no hit; TPP: no hit.

CSCC[C@H](N)C(=O)N(C)Cc1nc(-c2cccnc2)no1 was scored PreQ1: no hit; TPP: no hit. For NCC1CC2c3ccccc3C1c1ccccc12 (centres unmarked) the calls were PreQ1: no hit; TPP: no hit. With O=C(NC(CO)CO)c1cnc(Nc2ccccc2)nc1 the screen gave PreQ1: no hit; TPP: no hit. COc1cc2c(cc1OC)C(/C=C/c1ccco1)=NCC2.O=S(=O)(O)O was scored PreQ1: no hit; TPP: no hit. COc1ccc(CCNCc2ccc(C)s2)cc1 was scored PreQ1: no hit; TPP: no hit. Calls for CCOc1ccc(C2c3c(-c4ccccc4O)n[nH]c3C(=O)N2CCCO)cc1 (centres unmarked) are PreQ1: no hit; TPP: no hit. For CN(C)C[C@H]1C[C@@H](CO)CN(C(=O)C2(c3ccccc3)CCCC2)C1 the calls were PreQ1: no hit; TPP: no hit.

Cn1ccnc1-c1cn(CCc2nnc(N)s2)nn1 was scored PreQ1: no hit; TPP: no hit. Cc1c(NCc2cccnc2)cccc1C(=O)NCCN1CCCC(O)C1 (centres unmarked) was scored PreQ1: no hit; TPP: no hit. C=CCNc1nc(C2(C)CC3(CC(C)OC3=O)C(=O)O2)cs1 (centres unmarked) was scored PreQ1: no hit; TPP: no hit. For OCCN1CCN(c2ncnc3scc(-c4ccccc4)c23)CC1 the calls were PreQ1: no hit; TPP: no hit. With Cc1nc(N)cc(N2CCC3(CC2)OCCCC3O)n1 (centres unmarked) the screen gave PreQ1: no hit; TPP: no hit. Calls for CCCCC(Nc1ncnc2ccccc12)C(=O)O (centres unmarked) are PreQ1: no hit; TPP: no hit. With CCCN(CCC)S(=O)(=O)c1cc(Br)cnc1N the screen gave PreQ1: no hit; TPP: no hit.

With Nc1nc2c(s1)CN(C(=O)c1csc(-c3cccs3)n1)CC2 the screen gave PreQ1: no hit; TPP: no hit. Cc1ccsc1CN(CC(C)C)CC(O)CO (centres unmarked) was scored PreQ1: no hit; TPP: no hit. With CN1CC2(CCNCC2)CC1C(=O)NC1CCN(Cc2cccnc2)CC1 (centres unmarked) the screen gave PreQ1: no hit; TPP: no hit. C=CCn1cc(CNCC2CCN(c3cnn(C)c(=O)c3)C2)c(C)n1 (centres unmarked) was scored PreQ1: no hit; TPP: no hit. For NC1=C(c2nc3ccccc3s2)C(=O)CN1c1cc(Cl)ccc1O the calls were PreQ1: no hit; TPP: no hit. Calls for CCCC(C)C1C(C#N)=C(N)OC2=C1C(=O)CCC2 (centres unmarked) are PreQ1: no hit; TPP: no hit. OC[C@H]1CN(Cc2cnc(N3CCCCC3)nc2)C[C@H]1CN1CCOCC1 was scored PreQ1: no hit; TPP: no hit.

O=C1NCCc2c1sc1ccc(C(=O)N3Cc4ccccc4C(O)C3)cc21 (centres unmarked) was scored PreQ1: no hit; TPP: no hit. With CC(=O)Nc1cc(NC(=O)N2CCN([C@H]3CCCC[C@@H]3O)CC2)ccc1F the screen gave PreQ1: no hit; TPP: no hit. Calls for CCC1CN(C(CO)CO)CCC(=O)N1Cc1ccccc1 (centres unmarked) are PreQ1: no hit; TPP: no hit. Calls for CCN(CC)CCNc1nc(SC)nc2sc3c(c12)CC(C)(CC)OC3 (centres unmarked) are PreQ1: no hit; TPP: no hit. With Cc1nccn1C1(C(=O)O)CCN(C(=O)Cc2ccc(CO)cc2)CC1 the screen gave PreQ1: no hit; TPP: no hit. With Nc1nonc1C(=O)NCCNCc1ccccc1OCc1ccccc1Cl the screen gave PreQ1: no hit; TPP: no hit. With CCCCNc1nc2ccccc2c2nc(-c3cccnc3)nn12 the screen gave PreQ1: no hit; TPP: no hit.

Calls for CC1CCN(C(=O)CCNC2CCSC2)CC1 (centres unmarked) are PreQ1: no hit; TPP: no hit. For COc1cccc(Nc2cc(C)nc3cc(-c4ccc(OC)c(OC)c4)nn23)c1 the calls were PreQ1: no hit; TPP: no hit. Cn1ccnc1SCC(O)c1ccc(-c2ccccc2)cc1 (centres unmarked) was scored PreQ1: no hit; TPP: no hit. Calls for CN1CCN([C@H]2CCN(Cc3ccc(C#CCO)cc3)C[C@H]2CCC(=O)O)CC1 are PreQ1: no hit; TPP: no hit.

The first 5 entries again:

SMILES,PreQ1,TPP
CCN(CCO)CCCC(C)Nc1ccnc2cc(Cl)ccc12 (centres unmarked),no hit,no hit
COc1ccc(Cl)cc1Nc1nc2ccccc2n2cnnc12,no hit,no hit
Cc1c(S(=O)(=O)c2ccc(Cl)cc2)c(N)n(C(C)C)c1C,no hit,no hit
CCN(CCCCO)C(=O)c1cccc(-c2cn[nH]c2)c1,no hit,no hit
Cc1n[nH]c(C)c1S(=O)(=O)N1CCNCC1,no hit,no hit

Source: the ROBIN nucleic acid binder screens (doi:10.1002/anie.202211358).